We go through 1 substance from publication PMC4357696.

Chains of the proteins cited; added tags and fusions are not shown.
UniProt P15873: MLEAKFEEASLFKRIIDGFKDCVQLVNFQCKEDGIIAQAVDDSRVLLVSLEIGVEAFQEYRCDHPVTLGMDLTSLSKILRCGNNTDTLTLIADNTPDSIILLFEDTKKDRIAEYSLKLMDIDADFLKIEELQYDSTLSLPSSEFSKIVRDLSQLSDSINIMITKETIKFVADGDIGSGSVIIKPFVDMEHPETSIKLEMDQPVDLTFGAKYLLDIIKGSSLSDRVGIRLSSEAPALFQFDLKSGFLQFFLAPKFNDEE

Results are given in words; binding and its absence hold for the method and conditions named. Some entries that bind do so weakly or less than the wild type. Tags and fused reporters may be left off the sequences shown.

The test deals with T1, full length Rad5 (1-1169 a.a.), Gal4 DNA-binding domain fusion (pGBT9-RAD5, p347) (budding yeast) (UniProt P32849).
T1 sequence: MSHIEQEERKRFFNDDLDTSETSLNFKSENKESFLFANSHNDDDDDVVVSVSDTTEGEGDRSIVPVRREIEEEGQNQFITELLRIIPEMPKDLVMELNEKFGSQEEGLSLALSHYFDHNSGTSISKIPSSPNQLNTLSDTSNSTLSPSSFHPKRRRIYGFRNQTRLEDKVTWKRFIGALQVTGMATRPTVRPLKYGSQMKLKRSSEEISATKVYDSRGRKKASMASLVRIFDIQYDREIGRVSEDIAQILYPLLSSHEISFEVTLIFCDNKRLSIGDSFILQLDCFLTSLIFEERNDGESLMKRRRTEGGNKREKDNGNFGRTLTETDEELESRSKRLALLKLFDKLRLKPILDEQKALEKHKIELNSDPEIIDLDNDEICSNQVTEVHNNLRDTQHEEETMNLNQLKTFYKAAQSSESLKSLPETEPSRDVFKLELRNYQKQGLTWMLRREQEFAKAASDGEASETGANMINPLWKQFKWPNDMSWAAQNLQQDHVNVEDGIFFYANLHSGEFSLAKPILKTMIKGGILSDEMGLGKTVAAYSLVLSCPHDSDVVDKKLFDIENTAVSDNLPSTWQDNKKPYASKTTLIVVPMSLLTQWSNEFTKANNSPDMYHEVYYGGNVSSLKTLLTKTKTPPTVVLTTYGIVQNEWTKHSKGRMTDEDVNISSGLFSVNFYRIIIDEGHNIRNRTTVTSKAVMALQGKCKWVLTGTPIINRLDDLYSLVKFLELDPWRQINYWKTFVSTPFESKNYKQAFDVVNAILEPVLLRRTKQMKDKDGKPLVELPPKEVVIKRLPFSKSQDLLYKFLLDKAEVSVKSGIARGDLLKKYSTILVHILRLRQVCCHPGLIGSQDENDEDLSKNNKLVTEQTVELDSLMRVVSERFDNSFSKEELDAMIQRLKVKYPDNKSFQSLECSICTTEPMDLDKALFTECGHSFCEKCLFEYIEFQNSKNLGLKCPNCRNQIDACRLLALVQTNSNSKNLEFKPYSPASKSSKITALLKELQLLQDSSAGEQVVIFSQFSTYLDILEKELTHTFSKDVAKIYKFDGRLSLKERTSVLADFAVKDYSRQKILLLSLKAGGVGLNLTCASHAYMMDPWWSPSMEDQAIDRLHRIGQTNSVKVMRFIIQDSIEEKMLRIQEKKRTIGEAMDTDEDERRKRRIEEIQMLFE
Put plainly: two-hybrid; yeast two-hybrid, Gal4 AD and BD fusions expressed from high-copy-number plasmids (2μ-based); also the Rad5 deletion constructs in pGBT9.

On to “PCNA, Gal4 activation domain fusion (pGAD424-POL30, p343) (from UniProt P15873 1-258)”, for which the binding entry is given as “binds”.
